Experimental data as given in the supplement of paper PMC10849652.
The list shows a part of the results.

The chains behind the UniProt entries cited, without tags or fusion partners. Where a name states a change or a piece, a line headed by the entry shows the natural chain unless it says otherwise.
UniProt P23381: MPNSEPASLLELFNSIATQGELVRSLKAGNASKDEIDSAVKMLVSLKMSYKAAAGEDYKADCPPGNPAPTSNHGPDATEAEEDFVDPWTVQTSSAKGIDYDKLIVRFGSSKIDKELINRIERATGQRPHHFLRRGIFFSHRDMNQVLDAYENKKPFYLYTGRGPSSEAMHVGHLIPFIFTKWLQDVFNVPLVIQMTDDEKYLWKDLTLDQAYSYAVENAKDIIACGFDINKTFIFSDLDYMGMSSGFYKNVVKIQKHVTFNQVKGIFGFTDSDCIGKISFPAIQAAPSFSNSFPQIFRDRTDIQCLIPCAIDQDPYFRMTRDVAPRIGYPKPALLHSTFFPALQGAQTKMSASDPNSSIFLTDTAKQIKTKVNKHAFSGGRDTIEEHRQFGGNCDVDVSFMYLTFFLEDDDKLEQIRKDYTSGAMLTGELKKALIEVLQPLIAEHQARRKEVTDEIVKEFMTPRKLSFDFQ
UniProt Q8N9V3: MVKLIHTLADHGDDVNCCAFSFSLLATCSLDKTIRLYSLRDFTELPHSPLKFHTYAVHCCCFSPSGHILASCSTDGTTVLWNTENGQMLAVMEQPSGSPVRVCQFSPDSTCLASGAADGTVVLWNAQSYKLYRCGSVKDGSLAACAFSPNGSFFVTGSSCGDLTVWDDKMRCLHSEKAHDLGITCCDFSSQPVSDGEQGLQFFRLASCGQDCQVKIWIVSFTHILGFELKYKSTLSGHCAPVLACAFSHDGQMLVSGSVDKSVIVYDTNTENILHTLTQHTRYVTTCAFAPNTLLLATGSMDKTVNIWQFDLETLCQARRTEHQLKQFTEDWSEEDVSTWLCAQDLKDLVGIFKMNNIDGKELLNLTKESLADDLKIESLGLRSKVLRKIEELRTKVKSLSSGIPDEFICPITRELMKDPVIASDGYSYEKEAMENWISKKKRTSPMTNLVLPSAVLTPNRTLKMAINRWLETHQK
UniProt Q8TAF3: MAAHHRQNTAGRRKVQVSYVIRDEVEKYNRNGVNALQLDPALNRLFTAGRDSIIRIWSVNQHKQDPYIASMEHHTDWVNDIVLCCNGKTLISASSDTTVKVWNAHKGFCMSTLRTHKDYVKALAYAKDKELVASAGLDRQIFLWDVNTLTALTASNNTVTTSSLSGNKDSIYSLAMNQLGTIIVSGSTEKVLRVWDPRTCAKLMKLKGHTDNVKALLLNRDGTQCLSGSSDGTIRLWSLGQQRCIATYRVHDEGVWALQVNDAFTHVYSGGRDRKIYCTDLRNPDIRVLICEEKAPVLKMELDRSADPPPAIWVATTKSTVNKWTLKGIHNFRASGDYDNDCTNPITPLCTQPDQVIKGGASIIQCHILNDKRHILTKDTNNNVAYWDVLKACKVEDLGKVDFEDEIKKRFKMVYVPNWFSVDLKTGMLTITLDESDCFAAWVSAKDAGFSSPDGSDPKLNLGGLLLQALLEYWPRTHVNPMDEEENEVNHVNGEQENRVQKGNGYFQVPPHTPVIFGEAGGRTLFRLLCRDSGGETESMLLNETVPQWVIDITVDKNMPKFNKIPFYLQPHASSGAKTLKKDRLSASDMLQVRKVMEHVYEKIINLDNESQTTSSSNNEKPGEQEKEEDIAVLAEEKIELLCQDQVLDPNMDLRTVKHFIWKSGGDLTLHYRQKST
UniProt Q969T9: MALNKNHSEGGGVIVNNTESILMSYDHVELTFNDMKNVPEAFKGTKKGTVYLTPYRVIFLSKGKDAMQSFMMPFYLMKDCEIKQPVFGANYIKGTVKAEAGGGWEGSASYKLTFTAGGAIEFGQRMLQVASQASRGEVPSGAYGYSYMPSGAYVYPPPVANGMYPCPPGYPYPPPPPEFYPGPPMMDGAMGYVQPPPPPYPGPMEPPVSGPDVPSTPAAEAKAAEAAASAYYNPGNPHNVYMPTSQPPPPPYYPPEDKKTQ
UniProt A6NGB9: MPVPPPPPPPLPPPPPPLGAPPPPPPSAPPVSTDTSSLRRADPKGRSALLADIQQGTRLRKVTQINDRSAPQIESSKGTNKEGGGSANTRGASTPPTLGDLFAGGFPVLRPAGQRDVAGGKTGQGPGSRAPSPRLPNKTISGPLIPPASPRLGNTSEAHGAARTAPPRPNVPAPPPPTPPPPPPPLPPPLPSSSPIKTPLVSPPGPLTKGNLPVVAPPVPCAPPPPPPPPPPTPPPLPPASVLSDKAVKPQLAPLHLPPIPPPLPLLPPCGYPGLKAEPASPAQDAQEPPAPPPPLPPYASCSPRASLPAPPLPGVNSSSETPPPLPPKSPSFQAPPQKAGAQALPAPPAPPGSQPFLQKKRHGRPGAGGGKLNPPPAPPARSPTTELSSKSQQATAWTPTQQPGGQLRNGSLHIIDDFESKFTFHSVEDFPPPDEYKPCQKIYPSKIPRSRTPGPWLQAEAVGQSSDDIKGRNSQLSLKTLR
UniProt Q96MX6, whole entry, looked up: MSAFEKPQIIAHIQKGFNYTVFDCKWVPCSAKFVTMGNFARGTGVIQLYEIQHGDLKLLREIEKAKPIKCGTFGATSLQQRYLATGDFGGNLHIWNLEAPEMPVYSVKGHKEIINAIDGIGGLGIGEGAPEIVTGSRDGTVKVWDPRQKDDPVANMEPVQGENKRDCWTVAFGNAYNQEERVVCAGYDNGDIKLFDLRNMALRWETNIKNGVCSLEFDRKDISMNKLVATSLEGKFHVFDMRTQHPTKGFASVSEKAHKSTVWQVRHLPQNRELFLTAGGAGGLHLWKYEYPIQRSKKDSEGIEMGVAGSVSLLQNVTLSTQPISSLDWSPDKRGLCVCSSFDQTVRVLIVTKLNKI
UniProt Q8IWB7: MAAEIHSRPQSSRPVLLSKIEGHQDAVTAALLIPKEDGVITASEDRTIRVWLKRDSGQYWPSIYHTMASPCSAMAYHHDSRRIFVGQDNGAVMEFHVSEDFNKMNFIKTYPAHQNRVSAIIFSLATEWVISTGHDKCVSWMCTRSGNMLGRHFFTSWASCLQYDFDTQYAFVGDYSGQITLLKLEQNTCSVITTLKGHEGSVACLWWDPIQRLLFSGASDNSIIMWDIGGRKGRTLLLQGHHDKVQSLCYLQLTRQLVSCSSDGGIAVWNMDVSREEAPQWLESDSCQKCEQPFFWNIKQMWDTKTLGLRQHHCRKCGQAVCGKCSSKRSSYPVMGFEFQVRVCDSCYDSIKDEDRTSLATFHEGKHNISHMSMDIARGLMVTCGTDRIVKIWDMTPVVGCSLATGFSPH
UniProt Q9BQA1, whole entry, looked up: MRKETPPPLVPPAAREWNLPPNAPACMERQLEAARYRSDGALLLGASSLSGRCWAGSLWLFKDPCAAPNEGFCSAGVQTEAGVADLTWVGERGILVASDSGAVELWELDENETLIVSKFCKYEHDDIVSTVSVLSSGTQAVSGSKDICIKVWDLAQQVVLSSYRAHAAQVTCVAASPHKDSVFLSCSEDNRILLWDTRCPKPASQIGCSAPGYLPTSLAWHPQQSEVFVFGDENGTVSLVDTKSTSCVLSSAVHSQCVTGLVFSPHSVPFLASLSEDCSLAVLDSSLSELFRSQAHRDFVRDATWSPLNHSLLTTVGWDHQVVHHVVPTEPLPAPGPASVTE
UniProt O00401, whole entry, looked up: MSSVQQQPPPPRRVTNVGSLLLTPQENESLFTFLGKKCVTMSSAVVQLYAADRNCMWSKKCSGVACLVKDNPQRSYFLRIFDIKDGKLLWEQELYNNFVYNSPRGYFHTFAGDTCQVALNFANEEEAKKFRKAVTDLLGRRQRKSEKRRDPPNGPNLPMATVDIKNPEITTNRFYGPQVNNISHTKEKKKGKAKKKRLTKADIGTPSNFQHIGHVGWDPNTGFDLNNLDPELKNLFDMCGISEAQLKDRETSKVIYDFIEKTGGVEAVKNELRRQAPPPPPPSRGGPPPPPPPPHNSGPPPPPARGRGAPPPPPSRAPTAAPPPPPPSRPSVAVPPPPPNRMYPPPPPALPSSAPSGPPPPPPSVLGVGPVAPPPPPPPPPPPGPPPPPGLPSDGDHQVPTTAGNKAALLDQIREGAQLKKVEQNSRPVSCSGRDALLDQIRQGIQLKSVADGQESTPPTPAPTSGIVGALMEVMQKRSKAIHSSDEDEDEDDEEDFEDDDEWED
UniProt Q9P2S5: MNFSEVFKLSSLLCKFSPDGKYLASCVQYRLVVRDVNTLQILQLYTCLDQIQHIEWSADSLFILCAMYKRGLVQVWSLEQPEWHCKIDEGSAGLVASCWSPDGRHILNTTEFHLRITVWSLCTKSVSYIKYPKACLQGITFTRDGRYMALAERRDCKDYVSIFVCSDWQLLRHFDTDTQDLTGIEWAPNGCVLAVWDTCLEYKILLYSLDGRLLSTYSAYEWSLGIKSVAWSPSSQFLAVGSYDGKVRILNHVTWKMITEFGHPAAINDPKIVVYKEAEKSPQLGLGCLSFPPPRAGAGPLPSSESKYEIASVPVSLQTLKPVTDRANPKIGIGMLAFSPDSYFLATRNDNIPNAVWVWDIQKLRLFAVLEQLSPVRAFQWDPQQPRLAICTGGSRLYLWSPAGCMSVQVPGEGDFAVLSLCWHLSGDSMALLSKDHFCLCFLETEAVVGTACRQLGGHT
UniProt P08670, whole entry, looked up: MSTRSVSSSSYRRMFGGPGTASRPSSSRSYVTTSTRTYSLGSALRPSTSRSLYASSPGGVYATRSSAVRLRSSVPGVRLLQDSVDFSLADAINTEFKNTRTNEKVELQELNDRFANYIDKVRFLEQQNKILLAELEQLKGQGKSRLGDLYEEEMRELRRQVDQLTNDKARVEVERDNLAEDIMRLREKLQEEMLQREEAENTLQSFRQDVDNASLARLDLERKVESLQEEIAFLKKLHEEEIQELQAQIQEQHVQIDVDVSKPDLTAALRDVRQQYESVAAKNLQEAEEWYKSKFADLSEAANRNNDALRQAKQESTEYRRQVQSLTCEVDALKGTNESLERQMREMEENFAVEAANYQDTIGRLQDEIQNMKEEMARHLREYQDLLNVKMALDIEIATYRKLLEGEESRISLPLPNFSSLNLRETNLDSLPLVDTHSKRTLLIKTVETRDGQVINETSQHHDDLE
UniProt Q8NI36: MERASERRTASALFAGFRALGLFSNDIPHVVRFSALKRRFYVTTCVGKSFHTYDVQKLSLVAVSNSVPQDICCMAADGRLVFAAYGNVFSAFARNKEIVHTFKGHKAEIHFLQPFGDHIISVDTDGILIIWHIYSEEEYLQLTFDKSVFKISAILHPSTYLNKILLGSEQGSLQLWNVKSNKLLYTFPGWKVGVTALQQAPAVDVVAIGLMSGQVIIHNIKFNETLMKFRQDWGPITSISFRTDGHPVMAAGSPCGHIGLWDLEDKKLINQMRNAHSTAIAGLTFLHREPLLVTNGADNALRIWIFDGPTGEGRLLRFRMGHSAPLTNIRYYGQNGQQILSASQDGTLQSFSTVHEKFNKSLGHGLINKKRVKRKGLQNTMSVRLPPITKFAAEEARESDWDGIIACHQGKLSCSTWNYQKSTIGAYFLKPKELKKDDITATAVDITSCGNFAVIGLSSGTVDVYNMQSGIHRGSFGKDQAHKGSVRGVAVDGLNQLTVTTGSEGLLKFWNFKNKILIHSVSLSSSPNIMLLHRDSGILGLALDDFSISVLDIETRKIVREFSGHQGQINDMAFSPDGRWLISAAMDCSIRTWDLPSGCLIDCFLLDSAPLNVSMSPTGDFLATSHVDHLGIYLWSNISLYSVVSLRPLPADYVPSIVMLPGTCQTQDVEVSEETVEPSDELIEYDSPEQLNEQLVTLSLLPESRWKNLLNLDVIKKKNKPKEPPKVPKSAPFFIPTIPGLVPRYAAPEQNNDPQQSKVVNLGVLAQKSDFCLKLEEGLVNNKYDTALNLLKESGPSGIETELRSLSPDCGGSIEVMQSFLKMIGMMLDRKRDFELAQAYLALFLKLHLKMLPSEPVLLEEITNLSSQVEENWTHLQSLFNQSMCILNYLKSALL
UniProt Q6RFH5: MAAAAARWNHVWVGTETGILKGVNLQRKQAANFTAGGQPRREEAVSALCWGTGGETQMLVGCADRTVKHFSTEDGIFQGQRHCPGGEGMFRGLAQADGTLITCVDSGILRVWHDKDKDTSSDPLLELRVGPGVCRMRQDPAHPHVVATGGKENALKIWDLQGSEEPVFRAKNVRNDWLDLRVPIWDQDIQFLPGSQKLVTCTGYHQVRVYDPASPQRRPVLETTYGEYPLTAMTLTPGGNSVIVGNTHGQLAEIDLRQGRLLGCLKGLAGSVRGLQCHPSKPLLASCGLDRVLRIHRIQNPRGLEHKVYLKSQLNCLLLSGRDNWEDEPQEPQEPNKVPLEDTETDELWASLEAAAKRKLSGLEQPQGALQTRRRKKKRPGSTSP
UniProt Q9Y484: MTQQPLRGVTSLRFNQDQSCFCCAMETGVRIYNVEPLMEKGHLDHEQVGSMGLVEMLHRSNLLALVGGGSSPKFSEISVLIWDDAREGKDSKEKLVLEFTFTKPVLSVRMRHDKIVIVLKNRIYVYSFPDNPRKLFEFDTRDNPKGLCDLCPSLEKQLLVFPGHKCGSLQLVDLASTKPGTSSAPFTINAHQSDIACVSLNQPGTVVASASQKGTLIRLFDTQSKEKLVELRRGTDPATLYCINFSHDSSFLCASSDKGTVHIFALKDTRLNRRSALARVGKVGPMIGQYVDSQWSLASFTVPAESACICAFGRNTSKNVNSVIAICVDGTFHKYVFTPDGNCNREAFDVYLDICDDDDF

Columns and labels:
Assay in all cases: log2 fold change, soluble protein after heating vs DMSO (PISA); higher = thermal stabilisation; K562 cells, 10 uM, 30 min; active = over 0.2 and 3.5 SD of the protein, either way, in both replicates (recomputed)
[1] = compound: CC[C@@H]1C(=O)N(C)c2cnc(Nc3ccc(C(=O)NC4CCN(C)CC4)cc3OC)nc2N1C1CCCC1
Summary of the method: (§1)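 K562 cells at 2×10^6 cells/mL were exposed to 10 μM compound for 30 min, then aliquots were heated for 3 min across 48°C-58°C, pooled, and extracted in PBS containing 0.5% NP-40 at 4°C. The supernatant after 21,000xg for 90 min was taken as soluble protein and measured by TMTpro 16plex LC-MS/MS with channel sums equalised. Thermal stability is reported relative to control samples, with values from duplicates. Fold changes are given on a log2 scale.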

volasertib = compound: CC[C@@H]1C(=O)N(C)c2cnc(Nc3ccc(C(=O)N[C@H]4CC[C@H](N5CCN(CC6CC6)CC5)CC4)cc3OC)nc2N1C(C)C [volasertib]
Summary of the method: as §1

[2] = compound: CC[C@H](C)N1C=C(C2=C(C=C(C=C21)C3=CN=C(C=C3)N4CCNCC4)C(=O)NCC5=C(C=C(NC5=O)C)C)C
Summary of the method: as §1

epoxomicin = compound: CC[C@H](C)[C@@H](C(=O)N[C@@H]([C@@H](C)O)C(=O)N[C@@H](CC(C)C)C(=O)[C@]1(CO1)C)NC(=O)[C@H]([C@@H](C)CC)N(C)C(=O)C [epoxomicin]
Summary of the method: as §1

[3] = compound: CCn1c(C(=O)N(C2CC2)C2CC2)cc2c3c(ncn3C)c(Nc3cc(C)n(C)n3)nc21
Summary of the method: as §1

[4] = compound: CCn1cc(-c2ccnc3[nH]c(-c4cccc(CN(C)C)c4)cc23)c(-c2ccc(NC(=O)N(C)C)cc2)n1
Summary of the method: as §1

[5] = compound: CN(C)CC(=O)Nc1ccc2[nH]c(=O)c3ccccc3c2c1
Summary of the method: as §1

rosiglitazone = compound: CN(CCOC1=CC=C(C=C1)C[C@H]2C(=O)NC(=O)S2)C3=CC=CC=N3 (racemic) [rosiglitazone]
Summary of the method: as §1

[6] = compound: CN1C2=C(C3=C1C(=O)N(N=C3)CC4=CC(=CC=C4)N)SC(=C2)S(=O)C
Summary of the method: as §1

[7] = compound: CN1CCC(CNc2ccc3ncc(-c4cccc(OC(F)(F)F)c4)n3n2)CC1
Summary of the method: as §1

saracatinib = compound: CN1CCN(CCOc2cc(OC3CCOCC3)c3c(Nc4c(Cl)ccc5c4OCO5)ncnc3c2)CC1 [saracatinib]
Summary of the method: as §1

sotrastaurin = compound: CN1CCN(c2nc(C3=C(c4c[nH]c5ccccc45)C(=O)NC3=O)c3ccccc3n2)CC1 [sotrastaurin]
Summary of the method: as §1

alvocidib = compound: CN1CC[C@H](c2c(O)cc(O)c3c(=O)cc(-c4ccccc4Cl)oc23)[C@H](O)C1 [alvocidib]
Summary of the method: as §1

Tubastatin A = compound: CN1CCc2c(c3ccccc3n2Cc2ccc(C(=O)NO)cc2)C1 [Tubastatin A]
Summary of the method: as §1

[8] = compound: CNC(=O)C1=CC=CC=C1NC2=NC(=NC=C2Cl)NC3=C(C=C(C=C3)N4CCOCC4)OC
Summary of the method: as §1

defactinib = compound: CNC(=O)c1ccc(Nc2ncc(C(F)(F)F)c(NCc3nccnc3N(C)S(C)(=O)=O)n2)cc1 [defactinib]
Summary of the method: as §1

rucaparib = compound: CNCc1ccc(-c2[nH]c3cc(F)cc4c3c2CCNC4=O)cc1 [rucaparib]
Summary of the method: as §1

[9] = compound: CNc1nc(-c2ccc3c(N)n[nH]c3c2)cc(N2C[C@@H](C(=O)NC3CCCCC3)CC[C@H]2C)n1
Summary of the method: as §1

encorafenib = compound: COC(=O)N[C@@H](C)CNc1nccc(-c2cn(C(C)C)nc2-c2cc(Cl)cc(NS(C)(=O)=O)c2F)n1 [encorafenib]
Summary of the method: as §1

[10] = compound: COC(=O)[C@H](CCSC)NC(=O)C1=C(C=C(C=C1)NC[C@H](CS)N)C2=CC=CC=C2
Summary of the method: as §1

Measured: log2 fold change

WARS (UniProt P23381)
inactive: [1] -0.019 | volasertib 0.073 | [2] -0.016 | epoxomicin 0.019 | [3] 0.012 | [4] -0.015 | [5] -0.015 | rosiglitazone -0.02 | [6] -0.055 | [7] -0.011 | saracatinib 0.042 | sotrastaurin 0.038 | alvocidib -0.051 | Tubastatin A -0.001 | [8] -0.01 | defactinib 0 | rucaparib 0.002 | [9] 0.008 | encorafenib -0.017 | [10] 0.018

WDSUB1 (UniProt Q8N9V3)
inactive: [1] -0.021 | volasertib -0.105 | [2] 0.005 | epoxomicin -0.001 | [3] -0.022 | [4] 0.015 | [5] 0.033 | rosiglitazone 0.031 | [6] -0.087 | [7] -0.044 | saracatinib 0.041 | sotrastaurin 0.029 | alvocidib -0.037 | Tubastatin A 0.049 | [8] -0.073 | defactinib -0.061 | rucaparib -0.044 | [9] -0.036 | encorafenib -0.012 | [10] 0.037

WDR48 (UniProt Q8TAF3)
inactive: [1] 0.024 | volasertib 0.028 | [2] -0.015 | epoxomicin -0.025 | [3] 0.003 | [4] 0.002 | [5] 0.006 | rosiglitazone -0.015 | [6] -0.039 | [7] 0.021 | saracatinib 0.021 | sotrastaurin 0.027 | alvocidib 0.008 | Tubastatin A -0.019 | [8] -0.022 | defactinib -0.038 | rucaparib 0.02 | [9] -0.061 | encorafenib -0.025 | [10] 0.026

WBP2 (UniProt Q969T9)
inactive: [1] -0.058 | volasertib -0.017 | [2] 0.006 | epoxomicin 0.019 | [3] 0.029 | [4] -0.072 | [5] 0.011 | rosiglitazone -0.004 | [6] -0.029 | [7] 0.09 | saracatinib 0.06 | sotrastaurin -0.003 | alvocidib -0.046 | Tubastatin A -0.007 | [8] -0.013 | defactinib -0.015 | rucaparib -0.016 | [9] -0.074 | encorafenib 0.003 | [10] 0.04

WIPF3 (UniProt A6NGB9)
inactive: [1] 0.008 | volasertib 0.082 | [2] -0.01 | epoxomicin 0.054 | [3] -0.048 | [4] -0.03 | [5] -0.009 | rosiglitazone 0.013 | [6] -0.022 | [7] 0.232 | saracatinib 0.101 | sotrastaurin -0.002 | alvocidib -0.03 | Tubastatin A 0.016 | [8] -0.126 | defactinib 0.029 | rucaparib -0.007 | [9] 0 | encorafenib -0.012 | [10] 0.032

WDR92 (UniProt Q96MX6)
inactive: [1] -0.071 | volasertib 0.077 | [2] 0.082 | epoxomicin 0.044 | [3] -0.144 | [4] -0.032 | [5] -0.058 | rosiglitazone 0.024 | [6] -0.061 | [7] 0.185 | saracatinib 0.01 | sotrastaurin -0.017 | alvocidib -0.024 | Tubastatin A 0.027 | [8] 0.113 | defactinib 0.019 | rucaparib 0.063 | [9] 0.14 | encorafenib -0.037 | [10] -0.039

WDFY1 (UniProt Q8IWB7)
inactive: [1] -0.031 | volasertib -0.038 | [2] -0.033 | epoxomicin 0.034 | [3] -0.027 | [4] 0.029 | [5] -0.02 | rosiglitazone -0.006 | [6] 0.009 | [7] -0.051 | saracatinib 0.151 | sotrastaurin 0.004 | alvocidib 0.049 | Tubastatin A -0.073 | [8] -0.004 | defactinib -0.019 | rucaparib -0.003 | [9] -0.044 | encorafenib -0.036 | [10] 0.074

VPS29 isoform 2 (UniProt Q9UBQ0)
inactive: [1] -0.001 | volasertib 0.067 | [2] -0.016 | epoxomicin 0.041 | [3] -0.007 | [4] 0.001 | [5] -0.01 | rosiglitazone 0.022 | [6] -0.068 | [7] -0.075 | saracatinib 0.052 | sotrastaurin 0.025 | alvocidib 0.075 | Tubastatin A -0.039 | [8] -0.02 | defactinib 0.022 | rucaparib -0.06 | [9] -0.021 | encorafenib -0.003 | [10] 0.044

WDR77 (UniProt Q9BQA1)
inactive: [1] -0.024 | volasertib -0.027 | [2] 0.017 | epoxomicin 0.03 | [3] -0.004 | [4] 0.018 | [5] 0.032 | rosiglitazone 0 | [6] -0.054 | [7] 0.017 | saracatinib 0.061 | sotrastaurin 0.033 | alvocidib 0.19 | Tubastatin A -0.034 | [8] 0.065 | defactinib -0.038 | rucaparib 0.038 | [9] -0.015 | encorafenib -0.01 | [10] -0.003

WASL (UniProt O00401)
inactive: [1] -0.123 | volasertib -0.12 | [2] -0.027 | epoxomicin 0.024 | [3] 0.027 | [4] 0 | [5] 0.047 | rosiglitazone 0.092 | [6] -0.075 | [7] -0.072 | saracatinib 0.063 | sotrastaurin 0.007 | alvocidib -0.066 | Tubastatin A 0.003 | [8] -0.001 | defactinib -0.01 | rucaparib -0.02 | [9] 0.029 | encorafenib -0.023 | [10] -0.024

WRAP73 (UniProt Q9P2S5)
inactive: [1] 0.052 | volasertib -0.021 | [2] -0.007 | epoxomicin -0.07 | [3] -0.02 | [4] -0.028 | [5] -0.096 | rosiglitazone 0.034 | [6] -0.051 | [7] -0.034 | saracatinib 0.018 | sotrastaurin -0.033 | alvocidib 0.011 | Tubastatin A 0.005 | [8] 0.016 | defactinib -0.037 | rucaparib 0.011 | [9] -0.053 | encorafenib -0.002 | [10] -0.028

VIM (UniProt P08670)
inactive: [1] 0.198 | volasertib 0.102 | [2] -0.031 | epoxomicin -0.145 | [3] 0.102 | [4] 0.457 | [5] -0.151 | rosiglitazone -0.099 | [6] 0.423 | [7] 0.242 | saracatinib -0.037 | sotrastaurin -0.153 | alvocidib 0.106 | Tubastatin A -0.046 | [8] -0.01 | defactinib 0.162 | rucaparib 0.026 | [9] -0.059 | encorafenib 0.187 | [10] 0.04

WDR36 (UniProt Q8NI36)
inactive: [1] 0.03 | volasertib -0.059 | [2] -0.015 | epoxomicin -0.047 | [3] -0.028 | [4] 0.116 | [5] -0.036 | rosiglitazone -0.048 | [6] 0.152 | [7] 0.223 | saracatinib -0.056 | sotrastaurin 0.026 | alvocidib 0.15 | Tubastatin A 0 | [8] -0.016 | defactinib 0.249 | rucaparib 0.201 | [9] 0.081 | encorafenib 0.123 | [10] -0.019

WDR74 (UniProt Q6RFH5)
inactive: [1] 0.134 | volasertib 0.201 | [2] -0.041 | epoxomicin -0.121 | [3] 0.016 | [4] 0.062 | [5] -0.115 | rosiglitazone -0.079 | [6] 0.087 | [7] 0.144 | saracatinib -0.078 | sotrastaurin 0.001 | alvocidib 0.203 | Tubastatin A 0.016 | [8] 0.148 | defactinib 0.304 | rucaparib 0.223 | [9] -0.014 | encorafenib 0.037 | [10] 0.016

VKORC1L1, A0A3B3ISV4
inactive: [1] 0.083 | volasertib -0.016 | [2] -0.028 | epoxomicin -0.035 | [3] 0.009 | [4] 0.068 | [5] 0.01 | rosiglitazone 0.016 | [6] -0.148 | [7] 0.121 | saracatinib 0.015 | sotrastaurin 0.004 | alvocidib -0.037 | Tubastatin A -0.134 | [8] 0.073 | defactinib 0.003 | rucaparib 0.016 | [9] -0.032 | encorafenib -0.016 | [10] 0.056

Random excerpt: two records from the list, in no set order.
WDSUB1 (UniProt Q8N9V3)
inactive: [1] -0.021 | volasertib -0.105 | [2] 0.005 | epoxomicin -0.001 | [3] -0.022 | [4] 0.015 | [5] 0.033 | rosiglitazone 0.031 | [6] -0.087 | [7] -0.044 | saracatinib 0.041 | sotrastaurin 0.029 | alvocidib -0.037 | Tubastatin A 0.049 | [8] -0.073 | defactinib -0.061 | rucaparib -0.044 | [9] -0.036 | encorafenib -0.012 | [10] 0.037

WDFY1 (UniProt Q8IWB7)
inactive: [1] -0.031 | volasertib -0.038 | [2] -0.033 | epoxomicin 0.034 | [3] -0.027 | [4] 0.029 | [5] -0.02 | rosiglitazone -0.006 | [6] 0.009 | [7] -0.051 | saracatinib 0.151 | sotrastaurin 0.004 | alvocidib 0.049 | Tubastatin A -0.073 | [8] -0.004 | defactinib -0.019 | rucaparib -0.003 | [9] -0.044 | encorafenib -0.036 | [10] 0.074

(continued)

WDR45 (UniProt Q9Y484)
inactive: [1] -0.005 | volasertib -0.093 | [2] -0.03 | epoxomicin -0.002 | [3] -0.012 | [4] -0.046 | [5] 0.048 | rosiglitazone 0.046 | [6] 0.012 | [7] -0.062 | saracatinib 0.001 | sotrastaurin 0.017 | alvocidib -0.011 | Tubastatin A -0.013 | [8] -0.073 | defactinib -0.036 | rucaparib -0.135 | [9] 0.026 | encorafenib -0.003 | [10] 0.023
